PubChem BioAssay AID1224828 | NIAID, 2016
The whole screen tested about 17,000 reagents; shown is a random part of them. 762 of all reagents (4.5%) were called active. 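Active calls include both raised and lowered p65 entry, mostly lowered; wells with fewer than 50 cells lack a z-score.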 Raw values are not corrected between plates.

Assay: 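Find genes required for NF-kappaB p65 moving into the nucleus after LPS in mouse macrophages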 (primary screen)
Cells: mouse RAW264.7 G9 macrophage reporter cells (GFP-p65, Tnf promoter-mCherry)
Reagents: siRNA pool against mouse genes, 100 nM
Duration: 2 days siRNA transfection, then 40 min LPS before fixation
Treatment: LPS (Salmonella minnesota R595) at 10 ng/ml
Measurement: 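Imaged p65 nuclear translocation ratio, normalised to the plate median, converted to robust z-scores and averaged across two replicates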
Reading the numbers: p65 translocation robust z-score: higher = more nuclear NF-kappaB p65 after LPS than the plate median; nuclear/cytoplasmic p65 ratio: higher = more nuclear NF-kappaB p65
Call rule: 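Called active when z exceeds 3.3 or falls under -1.56 (median of Tlr4 controls), giving activity score of at least 50; no calls for control wells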
Calls: active = hit (p65 shift raised or lowered); inactive = no clear change

| gene | p65 translocation robust z-score | nuclear/cytoplasmic p65 ratio, rep 1 | nuclear/cytoplasmic p65 ratio, rep 2 | low cell count flag | outcome |
| --- | --- | --- | --- | --- | --- |
| Ms4a5 | 1.81 | 2.09 | 1.85 | enough cells to score | inactive |
| Cfh | 1.01 | 1.55 | 1.56 | enough cells to score | inactive |
| Otud7a | – | 1.26 | 1.38 | fewer than 50 cells per well; well left out of scoring | inactive |
| Tmem42 | – | 1.2 | 1.27 | fewer than 50 cells per well; well left out of scoring | inactive |
| Shisa5 | – | 1.36 | 1.26 | fewer than 50 cells per well; well left out of scoring | inactive |
| Gabrp | 0.01 | 1.4 | 1.4 | enough cells to score | inactive |
| Cyp2e1 | -0.23 | 1.58 | 1.7 | enough cells to score | inactive |
| Frem1 | -0.41 | 1.42 | 1.58 | enough cells to score | inactive |

The list goes on, starting with the last 3 of the part before.
| gene | p65 translocation robust z-score | nuclear/cytoplasmic p65 ratio, rep 1 | nuclear/cytoplasmic p65 ratio, rep 2 | low cell count flag | outcome |
| --- | --- | --- | --- | --- | --- |
| Gabrp | 0.01 | 1.4 | 1.4 | enough cells to score | inactive |
| Cyp2e1 | -0.23 | 1.58 | 1.7 | enough cells to score | inactive |
| Frem1 | -0.41 | 1.42 | 1.58 | enough cells to score | inactive |
| Dnajc17 | -0.43 | 1.21 | 1.49 | enough cells to score | inactive |
| Wbp11 | 1.57 | 1.54 | 1.4 | enough cells to score | inactive |
| Yme1l1 | -0.66 | 1.4 | 1.43 | enough cells to score | inactive |
| Lgi3 | 1.37 | 1.96 | 1.72 | enough cells to score | inactive |
| Plekha3 | -0.2 | 1.33 | 1.21 | enough cells to score | inactive |
| Gpsm1 | -0.3 | 1.09 | 1.52 | enough cells to score | inactive |
| Zbtb10 | 1.35 | 1.62 | 1.88 | enough cells to score | inactive |
| Dolpp1 | -1.25 | 1.35 | 1.18 | enough cells to score | inactive |
| Apeh | 1.3 | 1.89 | 1.74 | enough cells to score | inactive |
| Pabir2 | – | 0.908 | 0.84 | fewer than 50 cells per well; well left out of scoring | inactive |
| Rars1 | 0.3 | 1.35 | 1.31 | enough cells to score | inactive |
| Arl9 | -1.29 | 1.28 | 1.19 | enough cells to score | inactive |
| H2ac8 | 1.86 | 1.87 | 1.63 | enough cells to score | inactive |
| Cited4 | 0.14 | 1.41 | 1.46 | enough cells to score | inactive |
| Asb2 | -0.39 | 1.6 | 1.51 | enough cells to score | inactive |
| Ier5l | -0.05 | 1.43 | 1.42 | enough cells to score | inactive |
